From patent publication US10758545B2, “Methods to treat neurological diseases” (UNIVERSITY OF SOUTHERN CALIFORNIA, priority 2015, dated 2020)
Entries after “also recorded” stand apart in the source; their conditions may differ. For at least one compound, name, drawing or mass did not settle the structure.

Legend:
Assay in all cases: induced motor neuron (iMN) survival assay, glutamate treatment
Type in all cases: cell-based, human
[1] = system: control iMNs; details: excess glutamate (10 μM, 12 hrs); longitudinal tracking, log-rank
[2] = system: C9ORF72+/− iMNs; details: CTRL2 heterozygous CRISPR mutant; excess glutamate
[3] = system: C9ORF72−/− iMNs; details: CTRL2 homozygous CRISPR mutant; excess glutamate
[4] = system: C9ORF72 patient iMNs; details: excess glutamate (10 μM, 12 hrs); longitudinal tracking, log-rank
Description: For the glutamate treatment conditions, 10 μM glutamate was added to the culture medium on day 17 and removed after 12 hrs. Cells were then maintained in N3 medium with neurotrophic factors without RepSox. For the glutamate treatment conditions with glutamate receptor antagonists, cultures were co-treated with 10 μM MK801 and CNQX, and 2 μM Nimodipine during the 12 hr glutamate treatment. The antagonists were maintained for the remainder of the experiment. For the neurotrophic factor withdrawal condition, BDNF, GDNF, and CNTF were removed from the culture medium starting at day 17. Longitudinal tracking was performed by imaging neuronal cultures in a Nikon Biostation CT or Molecular Devices ImageExpress once every 24 hrs starting at day 17. Tracking of neuronal survival was performed using SVcell 2.0 (DRVision Technologies).

In the case of `CCOC(=O)Nc1ccc(NCc2ccc(F)cc2)cc1N` [retigabine], the “survival of control iMNs” value [1] is reported as “does not affect”, the “survival of C9ORF72+/− iMNs” value [2] is reported as “significantly increased the survival; also recorded: does not affect” and the “survival of C9ORF72−/− iMNs” value [3] is reported as “significantly increased the survival; also recorded: enhances the survival”. For the same compound, the “survival of C9ORF72 patient iMNs” value [4] was “significantly increased the survival”.
